{"sequences": {"note": "Sequences of proteins named here, by UniProt entry; tags and fusion partners are left off. Residues count along the entry.", "UniProt Q99JW5, 24-315": "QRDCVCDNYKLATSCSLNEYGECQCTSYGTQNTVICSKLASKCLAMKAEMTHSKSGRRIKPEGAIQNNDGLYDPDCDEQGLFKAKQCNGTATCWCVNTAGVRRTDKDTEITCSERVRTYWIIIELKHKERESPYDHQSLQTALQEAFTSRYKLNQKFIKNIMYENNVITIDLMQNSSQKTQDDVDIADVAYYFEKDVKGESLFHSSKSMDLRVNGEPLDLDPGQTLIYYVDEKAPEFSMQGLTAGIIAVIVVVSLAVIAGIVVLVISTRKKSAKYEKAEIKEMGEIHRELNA", "UniProt P16422, 24-314": "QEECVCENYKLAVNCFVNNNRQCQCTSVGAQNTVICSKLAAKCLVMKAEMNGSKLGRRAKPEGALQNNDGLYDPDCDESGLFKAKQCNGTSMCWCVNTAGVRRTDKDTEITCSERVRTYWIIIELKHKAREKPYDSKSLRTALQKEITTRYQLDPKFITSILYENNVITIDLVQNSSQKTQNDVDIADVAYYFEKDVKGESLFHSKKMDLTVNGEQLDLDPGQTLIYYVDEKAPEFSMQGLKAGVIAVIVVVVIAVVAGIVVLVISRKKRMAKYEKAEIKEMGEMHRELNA"}, "source": "patent US20220340906", "key": {"EpCAM (Mus musculus)": {"molecular_target": "EpCAM (Mus musculus) (UniProt Q99JW5)", "assay": "flow cytometry", "settings": "2'-F pyrimidines (all C and U; modified form printed as SEQ 67); binding/internalization Kd on mouse BC cells, one-site hyperbola fit; Opti-MEM, 5 mM MgCl2, tRNA and salmon sperm DNA; protein on the cell surface; label: 5'-Cy3"}, "EpCAM (Homo sapiens)": {"molecular_target": "EpCAM (Homo sapiens) (UniProt P16422)", "assay": "flow cytometry", "settings": "2'-F pyrimidines (all C and U; modified form printed as SEQ 67); binding/internalization Kd on human BC cells, one-site hyperbola fit; Opti-MEM, 5 mM MgCl2, tRNA and salmon sperm DNA; protein on the cell surface; protein details: endogenous on human breast cancer cell lines; label: 5'-Cy3"}}, "note": "At least one result comes from cells or an extract, where the contact may be indirect."}
{"sequence": "GCGACUGGUUACCCGGUCG [EpCAM aptamer (19 nt)]", "values": [{"measurement": "binding result", "setting": "EpCAM (Mus musculus)", "result": "binds"}, {"measurement": "binding result", "setting": "EpCAM (Homo sapiens)", "result": "binds"}]}
